Data: the supplement of paper PMC11006884
What follows is the remainder of the data, with few or none of the targets with a hit. Single values of this set are uncertain. This is a selection; strong and weak results do not stand in their true shares.

The chains behind the UniProt entries cited, without tags or fusion partners. Where a name states a change or a piece, a line headed by the entry shows the natural chain unless it says otherwise.
UniProt Q9BTY7: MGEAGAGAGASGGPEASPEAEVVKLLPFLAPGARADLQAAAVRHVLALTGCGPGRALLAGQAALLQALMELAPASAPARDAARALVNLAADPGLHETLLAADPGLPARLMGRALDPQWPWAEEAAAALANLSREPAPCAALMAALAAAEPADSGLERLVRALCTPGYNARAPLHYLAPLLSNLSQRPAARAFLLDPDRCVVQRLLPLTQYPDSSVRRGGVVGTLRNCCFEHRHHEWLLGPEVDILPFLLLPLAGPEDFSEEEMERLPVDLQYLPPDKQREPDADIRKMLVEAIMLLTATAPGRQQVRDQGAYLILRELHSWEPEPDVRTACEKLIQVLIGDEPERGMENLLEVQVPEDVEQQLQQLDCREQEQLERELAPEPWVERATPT
UniProt Q9BWU0: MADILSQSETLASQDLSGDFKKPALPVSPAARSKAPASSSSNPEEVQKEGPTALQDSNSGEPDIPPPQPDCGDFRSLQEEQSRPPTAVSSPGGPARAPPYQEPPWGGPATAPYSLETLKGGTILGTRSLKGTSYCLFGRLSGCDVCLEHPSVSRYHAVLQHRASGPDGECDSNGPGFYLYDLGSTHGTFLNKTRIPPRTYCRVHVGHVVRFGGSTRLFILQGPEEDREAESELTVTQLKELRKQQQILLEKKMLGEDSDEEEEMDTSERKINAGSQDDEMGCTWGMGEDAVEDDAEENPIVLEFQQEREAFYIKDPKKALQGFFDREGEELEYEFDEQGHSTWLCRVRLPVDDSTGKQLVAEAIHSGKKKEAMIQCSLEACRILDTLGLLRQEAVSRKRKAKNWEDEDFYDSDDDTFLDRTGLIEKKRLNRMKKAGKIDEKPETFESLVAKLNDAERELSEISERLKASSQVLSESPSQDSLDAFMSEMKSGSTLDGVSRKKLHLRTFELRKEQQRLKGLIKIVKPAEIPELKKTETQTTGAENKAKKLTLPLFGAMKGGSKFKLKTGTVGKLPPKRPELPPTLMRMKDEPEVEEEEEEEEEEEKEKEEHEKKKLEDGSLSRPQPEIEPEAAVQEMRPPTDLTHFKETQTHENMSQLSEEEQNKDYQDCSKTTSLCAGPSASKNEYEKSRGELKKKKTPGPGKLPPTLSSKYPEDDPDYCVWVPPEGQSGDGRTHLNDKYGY
UniProt Q9BYV8: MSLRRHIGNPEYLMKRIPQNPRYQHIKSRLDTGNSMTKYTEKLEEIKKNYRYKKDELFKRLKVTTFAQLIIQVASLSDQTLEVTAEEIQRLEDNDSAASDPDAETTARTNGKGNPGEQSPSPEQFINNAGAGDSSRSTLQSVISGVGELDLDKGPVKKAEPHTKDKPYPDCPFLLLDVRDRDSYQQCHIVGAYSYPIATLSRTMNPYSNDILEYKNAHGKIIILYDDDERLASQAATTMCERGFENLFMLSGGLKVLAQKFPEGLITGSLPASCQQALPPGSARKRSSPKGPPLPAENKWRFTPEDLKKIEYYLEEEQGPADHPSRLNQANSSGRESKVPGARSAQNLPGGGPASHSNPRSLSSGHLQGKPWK
UniProt Q9BSD7: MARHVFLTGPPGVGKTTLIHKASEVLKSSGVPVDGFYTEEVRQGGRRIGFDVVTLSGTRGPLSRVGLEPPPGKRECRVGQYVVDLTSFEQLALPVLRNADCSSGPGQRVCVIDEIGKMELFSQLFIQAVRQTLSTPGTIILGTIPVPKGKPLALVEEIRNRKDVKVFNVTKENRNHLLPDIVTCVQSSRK
UniProt Q9BXP5: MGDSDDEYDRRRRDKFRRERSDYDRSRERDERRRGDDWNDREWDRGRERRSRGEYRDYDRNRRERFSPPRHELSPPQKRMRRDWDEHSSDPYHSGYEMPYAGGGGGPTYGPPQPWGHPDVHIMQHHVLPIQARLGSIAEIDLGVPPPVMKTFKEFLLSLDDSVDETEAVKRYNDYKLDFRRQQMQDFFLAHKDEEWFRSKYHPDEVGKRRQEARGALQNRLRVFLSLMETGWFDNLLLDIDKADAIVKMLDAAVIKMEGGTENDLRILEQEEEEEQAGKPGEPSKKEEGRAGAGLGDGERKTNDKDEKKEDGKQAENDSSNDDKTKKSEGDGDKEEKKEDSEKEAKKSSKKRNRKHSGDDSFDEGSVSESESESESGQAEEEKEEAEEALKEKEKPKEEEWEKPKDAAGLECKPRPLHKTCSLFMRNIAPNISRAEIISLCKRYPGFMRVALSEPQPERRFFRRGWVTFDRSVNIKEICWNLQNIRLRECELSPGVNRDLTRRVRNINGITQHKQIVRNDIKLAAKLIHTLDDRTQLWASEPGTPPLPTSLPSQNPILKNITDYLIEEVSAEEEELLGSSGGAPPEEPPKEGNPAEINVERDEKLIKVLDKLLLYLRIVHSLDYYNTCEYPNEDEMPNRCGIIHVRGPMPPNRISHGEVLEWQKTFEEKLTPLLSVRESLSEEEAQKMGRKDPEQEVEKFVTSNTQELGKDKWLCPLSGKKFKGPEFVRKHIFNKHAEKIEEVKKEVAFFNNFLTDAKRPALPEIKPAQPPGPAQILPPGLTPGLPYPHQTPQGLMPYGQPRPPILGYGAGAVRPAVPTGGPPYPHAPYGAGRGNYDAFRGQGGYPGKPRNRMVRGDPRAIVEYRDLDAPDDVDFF
UniProt Q9BZF9: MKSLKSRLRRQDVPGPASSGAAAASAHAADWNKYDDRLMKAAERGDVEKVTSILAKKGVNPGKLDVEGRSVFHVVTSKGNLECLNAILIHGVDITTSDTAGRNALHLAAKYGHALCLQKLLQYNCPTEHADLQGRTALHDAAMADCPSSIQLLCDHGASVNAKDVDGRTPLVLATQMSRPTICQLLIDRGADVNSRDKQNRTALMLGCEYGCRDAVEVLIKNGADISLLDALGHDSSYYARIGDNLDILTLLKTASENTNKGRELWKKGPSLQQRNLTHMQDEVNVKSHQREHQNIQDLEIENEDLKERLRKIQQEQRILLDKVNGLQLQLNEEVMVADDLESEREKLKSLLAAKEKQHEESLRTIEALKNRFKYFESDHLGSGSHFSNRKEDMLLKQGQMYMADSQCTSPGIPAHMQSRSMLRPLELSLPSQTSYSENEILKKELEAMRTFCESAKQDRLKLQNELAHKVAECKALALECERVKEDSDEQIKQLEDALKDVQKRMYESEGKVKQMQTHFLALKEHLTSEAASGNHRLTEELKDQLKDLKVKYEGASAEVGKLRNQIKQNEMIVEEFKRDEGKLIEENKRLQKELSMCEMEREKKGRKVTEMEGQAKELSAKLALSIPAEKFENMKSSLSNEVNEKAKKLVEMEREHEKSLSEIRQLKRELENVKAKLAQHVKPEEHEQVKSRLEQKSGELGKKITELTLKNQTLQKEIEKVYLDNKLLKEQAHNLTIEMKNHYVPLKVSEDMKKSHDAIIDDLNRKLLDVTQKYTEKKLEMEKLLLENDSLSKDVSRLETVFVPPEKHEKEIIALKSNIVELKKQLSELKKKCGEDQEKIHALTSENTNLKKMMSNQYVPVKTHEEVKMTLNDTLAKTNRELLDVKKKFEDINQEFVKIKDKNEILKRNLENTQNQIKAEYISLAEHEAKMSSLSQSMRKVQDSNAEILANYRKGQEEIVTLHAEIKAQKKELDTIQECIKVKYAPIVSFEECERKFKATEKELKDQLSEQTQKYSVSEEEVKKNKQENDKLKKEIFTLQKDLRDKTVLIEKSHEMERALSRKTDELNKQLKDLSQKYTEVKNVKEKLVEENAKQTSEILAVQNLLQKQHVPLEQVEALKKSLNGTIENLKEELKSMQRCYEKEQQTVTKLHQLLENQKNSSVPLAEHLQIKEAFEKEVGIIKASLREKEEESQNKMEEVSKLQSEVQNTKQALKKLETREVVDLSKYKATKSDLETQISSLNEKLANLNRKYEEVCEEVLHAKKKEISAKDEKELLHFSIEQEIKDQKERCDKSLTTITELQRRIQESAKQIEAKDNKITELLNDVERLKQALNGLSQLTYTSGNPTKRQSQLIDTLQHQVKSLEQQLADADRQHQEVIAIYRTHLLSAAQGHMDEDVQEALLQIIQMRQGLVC
UniProt Q9BTE3: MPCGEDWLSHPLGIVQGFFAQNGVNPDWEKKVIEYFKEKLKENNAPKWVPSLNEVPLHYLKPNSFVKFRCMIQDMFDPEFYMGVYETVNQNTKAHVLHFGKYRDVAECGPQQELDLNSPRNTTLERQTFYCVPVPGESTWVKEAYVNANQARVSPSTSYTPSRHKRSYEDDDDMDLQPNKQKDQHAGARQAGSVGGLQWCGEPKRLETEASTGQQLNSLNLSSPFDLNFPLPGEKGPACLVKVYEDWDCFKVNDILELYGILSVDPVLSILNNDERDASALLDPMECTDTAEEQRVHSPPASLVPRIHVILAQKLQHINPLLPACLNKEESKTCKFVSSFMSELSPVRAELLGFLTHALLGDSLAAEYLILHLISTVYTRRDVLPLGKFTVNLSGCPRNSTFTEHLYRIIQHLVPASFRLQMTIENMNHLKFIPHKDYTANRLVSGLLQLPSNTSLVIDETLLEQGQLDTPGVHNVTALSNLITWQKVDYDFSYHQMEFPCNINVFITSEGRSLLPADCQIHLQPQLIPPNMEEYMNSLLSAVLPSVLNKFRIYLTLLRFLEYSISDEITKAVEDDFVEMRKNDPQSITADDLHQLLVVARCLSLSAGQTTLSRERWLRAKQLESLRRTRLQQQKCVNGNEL
UniProt Q9BW83: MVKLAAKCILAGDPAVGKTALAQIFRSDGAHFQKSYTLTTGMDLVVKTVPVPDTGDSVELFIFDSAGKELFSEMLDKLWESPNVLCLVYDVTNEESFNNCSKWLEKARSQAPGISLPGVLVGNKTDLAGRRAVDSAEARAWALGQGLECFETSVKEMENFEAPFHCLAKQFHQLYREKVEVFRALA
UniProt Q9BTT0: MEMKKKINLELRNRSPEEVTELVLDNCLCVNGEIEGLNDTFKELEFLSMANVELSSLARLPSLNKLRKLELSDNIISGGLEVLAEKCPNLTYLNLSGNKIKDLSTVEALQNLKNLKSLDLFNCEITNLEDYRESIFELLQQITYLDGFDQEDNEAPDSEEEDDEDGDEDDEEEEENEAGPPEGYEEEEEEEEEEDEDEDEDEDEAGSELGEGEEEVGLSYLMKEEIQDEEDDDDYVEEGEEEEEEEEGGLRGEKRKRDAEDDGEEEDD
UniProt Q9BVP2: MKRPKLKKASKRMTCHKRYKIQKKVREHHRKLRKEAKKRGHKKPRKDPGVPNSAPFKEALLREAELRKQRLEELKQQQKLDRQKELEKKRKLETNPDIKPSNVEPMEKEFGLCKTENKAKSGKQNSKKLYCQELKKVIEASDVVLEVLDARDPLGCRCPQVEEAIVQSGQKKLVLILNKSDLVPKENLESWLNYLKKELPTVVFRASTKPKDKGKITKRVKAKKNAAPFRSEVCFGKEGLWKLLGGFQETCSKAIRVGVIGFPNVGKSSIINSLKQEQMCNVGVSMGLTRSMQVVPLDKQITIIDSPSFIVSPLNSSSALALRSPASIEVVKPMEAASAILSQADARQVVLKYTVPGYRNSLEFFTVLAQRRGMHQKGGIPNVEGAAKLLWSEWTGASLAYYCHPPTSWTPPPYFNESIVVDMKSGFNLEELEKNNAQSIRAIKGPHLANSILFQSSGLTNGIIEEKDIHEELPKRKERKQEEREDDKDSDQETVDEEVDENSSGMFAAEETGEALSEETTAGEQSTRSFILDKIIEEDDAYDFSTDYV
UniProt Q9BW19: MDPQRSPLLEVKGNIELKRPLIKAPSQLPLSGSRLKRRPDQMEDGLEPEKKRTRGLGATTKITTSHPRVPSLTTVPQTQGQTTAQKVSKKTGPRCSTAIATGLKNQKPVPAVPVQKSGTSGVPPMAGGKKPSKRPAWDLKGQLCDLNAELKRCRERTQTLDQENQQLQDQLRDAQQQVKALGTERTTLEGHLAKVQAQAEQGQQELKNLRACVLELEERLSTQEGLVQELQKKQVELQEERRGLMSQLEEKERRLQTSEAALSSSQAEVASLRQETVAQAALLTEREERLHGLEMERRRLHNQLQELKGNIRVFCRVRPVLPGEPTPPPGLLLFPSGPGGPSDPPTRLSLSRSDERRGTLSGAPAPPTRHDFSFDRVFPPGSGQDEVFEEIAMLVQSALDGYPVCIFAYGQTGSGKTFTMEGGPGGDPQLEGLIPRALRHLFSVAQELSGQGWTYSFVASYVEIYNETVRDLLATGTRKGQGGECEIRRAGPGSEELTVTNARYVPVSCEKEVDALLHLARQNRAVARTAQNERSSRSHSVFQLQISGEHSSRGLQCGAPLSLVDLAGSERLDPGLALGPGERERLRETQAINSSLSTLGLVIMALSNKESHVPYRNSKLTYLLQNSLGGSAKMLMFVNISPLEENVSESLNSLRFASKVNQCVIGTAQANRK
UniProt Q9BRT3: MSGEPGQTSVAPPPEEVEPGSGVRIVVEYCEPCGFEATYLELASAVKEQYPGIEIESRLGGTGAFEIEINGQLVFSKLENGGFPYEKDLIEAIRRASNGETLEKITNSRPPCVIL
UniProt Q9BV57: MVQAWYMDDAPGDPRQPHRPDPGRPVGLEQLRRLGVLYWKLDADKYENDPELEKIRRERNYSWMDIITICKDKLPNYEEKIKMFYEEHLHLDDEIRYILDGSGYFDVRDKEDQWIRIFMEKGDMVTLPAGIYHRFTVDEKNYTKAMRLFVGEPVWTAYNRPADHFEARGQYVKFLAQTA

compound: COC(=O)/C=C/c1ccccc1 [methyl cinnamate]; experiment: log2 ratio of iodoacetamide-alkyne labeling of the cysteine site, DMSO over compound (competition); higher = stronger covalent engagement of the cysteine by the compound, active = 1 or more; conditions: 500 µM; treatment time 1 h; system: HEK293T cell lysate
How it was run: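 The log2 competition ratio per cysteine is defined as mean reporter intensity in control channels over mean reporter intensity in compound channels. Lysate from HEK293T cells (2 mg/mL) received electrophile (500 µM) or vehicle for 1 h at ambient temperature, followed by iodoacetamide alkyne for 1 h. Samples were clicked to sCIP-TMT reagents, pooled, trypsin-digested overnight at 37 °C, streptavidin-enriched, acid-eluted and run on Orbitrap Eclipse LC-MS/MS with FAIMS, with quantification in FragPipe. Three replicates with duplicate channels were used, and any cysteine quantified in only one replicate was excluded.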

log2 ratio of iodoacetamide-alkyne labeling, inactive:
UniProt Q9BTY7_C368 -0.156
KATNAL1 C313 (UniProt Q9BW62) -0.126
UniProt Q9GZU8_C44 0.377
SLC4A1AP C336 (UniProt Q9BWU0) 0.0881
TNKS1BP1 C716 (UniProt Q9C0C2) 0.379
UniProt Q9BXW7_C392 -0.113
SCAPER C1301 (UniProt Q9BY12) 0.123
UniProt Q9BYV8_C171 0.112
UniProt Q9BSD7_C110 -0.0745
UniProt Q9BXV9_C21 0.211
UniProt Q9BXP5_C441 0.111
MRI1 C168 (UniProt Q9BV20) 0.0127
MRPL9 C221 (UniProt Q9BYD2) -0.000759
UniProt Q9BSJ8_C522 0.222
DIDO1 C1665 (UniProt Q9BTC0) 0.525
FYCO1 C882 (UniProt Q9BQS8) 0.223
QRSL1 C512 (UniProt Q9H0R6) -0.199
UACA C994 (UniProt Q9BZF9) 0.118
TRMT61B C143 (UniProt Q9BVS5) 0.321
UniProt Q9BTE3_C108 0.197
UBXN6 C210 (UniProt Q9BZV1) -0.348
UniProt Q9BTE3_C200 0.226
UniProt Q9BTE3_C636 0.382
UniProt Q9BW83_C149 -0.114
DDX23 C692 (UniProt Q9BUQ8) 0.156
SLK C1212 (UniProt Q9H2G2) 0.35
COPS4 C378 (UniProt Q9BT78) -0.0659
NUDT9 C347 (UniProt Q9BW91) 0.18
UniProt Q9BVL4_C629 0.193
ANP32E C123 (UniProt Q9BTT0) 0.324
DIDO1 C350 (UniProt Q9BTC0) 0.207
GNL3 C234 (UniProt Q9BVP2) 0.189
KIFC1 C144 (UniProt Q9BW19) 0.412
SLC4A1AP C730 (UniProt Q9BWU0) 0.47
ANP32E C87 (UniProt Q9BTT0) 0.483
UniProt Q9BRT3_C33 0.371
ADI1 C70 (UniProt Q9BV57) 0.0329
UniProt Q9BSH4_C112 -0.149

For reference, part of the list above.
log2 ratio of iodoacetamide-alkyne labeling, inactive:
UBXN6 C210 (UniProt Q9BZV1) -0.348
UniProt Q9BTE3_C200 0.226
UniProt Q9BTE3_C636 0.382
